Measured values as given in patent US20140004243A1, “SALTY TASTE ENHANCER” (AJINOMOTO CO., INC., priority 2011, published 2014).

Test system: human
Assay: Sensory evaluation of strength of bitter taste in human
Format: in vivo
Details: 0 = no bitter taste, 5.0 = 0.001 g/dl capsazepine
[1] = sample 0.0001 g/dl in 0.8 g/dl sodium chloride
[2] = sample 0.0005 g/dl in 0.8 g/dl sodium chloride
[3] = sample 0.001 g/dl in 0.8 g/dl sodium chloride

| Compound | strength of bitter taste [1] | strength of bitter taste [2] | strength of bitter taste [3] |
| --- | --- | --- | --- |
| C[C@@H](NC(=S)NCCc1ccccc1)c1ccccc1 [Example 11] | 0.09 points | 0.12 points | 0.16 points |
| OC[C@@H](NC(=S)NCCc1ccccc1)c1ccccc1 [Example 51] | 0.01 points | 0.11 points | 0.40 points |
| Oc1cc2c(cc1O)CN(C(=S)NCCc1ccc(Cl)cc1)CCC2 [capsazepine] | 0.8 points | 2.6 points | 5.0 points |
